For at least one entry, the source does not settle the construct or the ends of the probe. Where a protein sequence is shown, tags need not be part of it.
System: T1, ArcA (Dickeya oryzae EC1)
T1 sequence (looked up): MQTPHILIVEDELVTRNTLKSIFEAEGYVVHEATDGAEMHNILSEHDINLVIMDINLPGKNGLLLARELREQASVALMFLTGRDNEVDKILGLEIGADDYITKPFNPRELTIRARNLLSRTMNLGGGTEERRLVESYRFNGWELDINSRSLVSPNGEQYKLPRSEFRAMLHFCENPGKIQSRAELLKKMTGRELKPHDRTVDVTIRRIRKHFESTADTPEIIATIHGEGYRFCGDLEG
Assay: EMSA
Conditions: recombinant protein, residues 1-238, protein details: His (pET32a), probe letters rebuilt from the primers and the genome

[1] = 1-6 uM ArcA, 100x unlabeled competitor, […], binding buffer, pH and temperature not given, label: 3' biotin
[2] = 0.5 uM ArcB (no TM segments) added, enhanced affinity, ArcA 0.3-1.2 uM, […], binding buffer, pH and temperature not given, label: 3' biotin (Fig 8A), unlabeled (Fig 8B)
[3] = 1-6 uM ArcA, 100x unlabeled competitor, […], binding buffer, pH and temperature not given, label: 3' biotin (Fig 8A), unlabeled (Fig 8B)
[4] = 1-6 uM ArcA, 100x unlabeled competitor, EMSA: 20 fmol biotin-labeled DNA, 0/1/3/6 uM ArcA, 10 ul, 6% native PAGE in TBE, 0-1.2 uM ArcA or ArcA-deltaREC, 0.5 uM ArcB, 5% native PAGE in TAE, label: 3' biotin

Row | Sequence | binding result [1] | binding result [2] | binding result [3] | binding result [4]
1 | ATTCAGTGCTGCTGTGGTTTCAGCTATATTCATCATCGTGAAATATTTACCATTCAATATACTTAACGAATTCTCAGTAGTGGTGTTAGATATCTTTGTTGCCATGATTTCTGCCATTGTTGGTGTAATTATGGGCGTGCTCCGGGGAAGGACGATTGTATTATCAAAGAAGTGAAATAGGATTATGAATTTTCCTACGCCTATCCTGGTTATAATACCAAGGAGTAAGTTTAACAGTTATTAACAATAAAGCGGGTCATAGTGAGGTACATGGCTTCATGTTACCCAGGGATGGCTTTGCCTTTTGTGAGAGGGAATATATGTTAGGGAAGGATATATTGCACCTGAATAGCGGGGCAAGTGACATTGCAATTGTCGGA (double strand) [zmsA promoter] | binds |  |  | 
2 | CAACGAAGGCTGTTCTATTCCAATCGCCTTGGCAAGTTGAATTTGGGACTGCCCCGGGGGCAGTTGGTGAATATTATGCAGCGTGACCCAGTGAGTTTGAGTGAGCTCTAGAGGCTTCAATCGATGATCAATCAAAGCACGCCATACACGAACCAACCGAGCTAAATCAGAACCTAACGGCAATTCCATCACCTCTCCTTATAGTTAGCATACTAAGCAACTTCCCTGGATTGCAATCAACTCTGATTTAAAACGAAAGTTTTATAAAAAGGTCTTATTGTTATCTATCTATTCTAGCAAATAATAATTAATTAAAAATGATCTTGAACTTAATTTATGCCATTAAATATCACCATGTCGATTAAAACAGGGTCGGCT (double strand) [slyA promoter] |  | binds | binds | 
3 | ACCACCGCAAAGGTTCTTACCTGCTGCTCAATCAGACGGATAACCGTCGTGCAGTCAGCAGTCAGGTCACCTCGTTTGTTCAGCAACGCATGGCGGACAAACTGATAGGCAGTGTGCACCGCGATGAAAGCGTGGCGGAAGCCAATGCTTCACAACGCTCTATTTTTGATTTCAGCCCGGTGTCTGCCGCTGCATTTGATATCGAACTGATTGGAAAGCGCGTTGCTGCGCTGCTGGATATTCGAATCGGGAATGGAGAAGTTCACGCCGATCTGCCAGCCTATCAGACTGTAATGAACCACTAGTCGCCGGTTCCGGCTATATTTGTGAAGAAATTGATATTCTCCGGCTGGTTTTCCCGGCACAAGGTGTGTGCGCGCAAATATTTTCCATCAATTAAATATCAGGATAATCGATG (double strand) [bcsA promoter] |  | binds | binds | 
4 | AGTTCTGTCAGCTCTTTTTCTGTTTACGCAAGATTTTCAAAATATGCCTTCAACGCCTCCAGCTGTTCGCTGGCGTCCTCTATGGCGTTGAATGTGCGCCTAAACTGGTCGTTTGGGGCGTGCTCCTGGAGATACCAGGACACGTGCTTACGTGCTATACGAAATCCCTTGCCTGGACCATAAAAGTCGTGCAATTCCCGTATATGCCCGATCAACAAGTGCTTGACCTCTGCCAGTGGCAGGGGCGGCAGCAACTCCCCTGTGTCCAGATAATGCTGGATTTCCCGAAAGATCCAGGGTCTTCCCTGAGCAGCTCGTCCTATCATCAGGGCATCAGCCCCGGTGTAATCAAGAACCGCTCTGGCTTTGCGCGGGTCAGTAATGTCGCCATTCGCGATAACGGGAATGGAAACACTCTGC (double strand) [fis promoter] |  |  |  | binds
5 | CATGTGACTCCTTTGAGTGGATTATATTCGCGATTTAAATCGCCAGATATTAAATCGTACACTATTTAATTGGTGGTAAAAAAACGCGTCCAATCAGCACGCGTTACATCATATCGACTCATCAAATATGTCTGATGAGGCTGGCTCGCAGCGTTTCCAAATCATGCTTGATAGCACGCAACTGCTCGATATTGCATTCTGACGCGCAGAACACACCTTCTGGTACGGCCTTCGCTTTGGTCTGCAATGCACGCCCGTCGTCGGTGAGCTCAATCAGCACCTGACGTTCGTCTTGCGTGCCACGACGGCGCGTCACCAACCCTGCGGTTTGCAGACGCTTAAGCAGCGGCGTCAGCGTGGCAGAATCCAGAAACAGACGCTCACCCAGTTCAG (double strand) [ohrR promoter] |  |  |  | binds
6 | CACAAGCGGGTGCGTTTGAATGATCTCATTTTTTCTGTCCATAAATACCCCTTATTAACTAGTTACTACCGTGAGTGACTAAACGAGGTTTAAGACGGCTCTTGTACCTGAGCAATATCAGTATATCTCTGTCGGATTCATTTATGGAAATTAAATGTAAAAAAAACTCAAGTGGATGTTTCGATTAATTATCCAGCAAAATGAGCGCTGTGATTTGAACGAAAATAGTACAGTGCGTTAATGTAAGACGGCGAGGTAGTACGACATCTTACCGAAGAAACGAAAAGGTCAGACGAGATGTCTGACCATTGGGTAACCGGTGCGGATAGAAAAAGGAGATTACTCGCTTTGAACAAACCAGTCGTCAGCGCTTTCCCAAGTCTCTTGCAGGATTTCCGATATTTTCTCTCTGTCGTCTTTACTGCCGCCCAAAACGCTCAGGTTATTCGAGGCGGCATAA (double strand) [bssS promoter] | binds |  |  | 
